Experimental data as given in PMC5295437.
These are yes or no findings as the source states them, for the method shown. In cells and extracts the contact can be indirect. Some entries that bind do so weakly or less than the wild type.

Target: T1, Progranulin (PGRN) (human), P28799
T1 chain: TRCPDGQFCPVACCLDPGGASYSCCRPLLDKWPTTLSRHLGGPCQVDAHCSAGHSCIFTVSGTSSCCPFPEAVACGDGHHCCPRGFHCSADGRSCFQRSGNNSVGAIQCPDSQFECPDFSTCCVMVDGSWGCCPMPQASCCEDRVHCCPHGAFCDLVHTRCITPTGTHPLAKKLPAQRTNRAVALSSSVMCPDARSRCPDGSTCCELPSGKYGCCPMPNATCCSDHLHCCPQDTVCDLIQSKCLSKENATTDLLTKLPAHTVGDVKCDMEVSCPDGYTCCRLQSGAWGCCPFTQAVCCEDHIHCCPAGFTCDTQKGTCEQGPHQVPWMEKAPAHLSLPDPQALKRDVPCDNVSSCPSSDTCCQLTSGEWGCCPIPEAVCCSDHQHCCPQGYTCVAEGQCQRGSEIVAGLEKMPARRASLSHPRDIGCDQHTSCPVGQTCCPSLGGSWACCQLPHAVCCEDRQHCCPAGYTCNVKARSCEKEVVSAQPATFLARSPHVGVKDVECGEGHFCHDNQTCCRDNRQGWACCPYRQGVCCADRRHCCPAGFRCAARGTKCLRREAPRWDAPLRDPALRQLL
Assay: co-IP; about 500 ug cellular extract of rhPGRN-pretreated HeLa cells incubated with anti-PGRN or control IgG (25 ug/mL) for 1 hr, then protein A/G-agarose at 4°C overnight; bound protein blotted with anti-TNFR1 and anti-TNFR2
Details: remark: other sources report otherwise

- binding: binds
B1: Tumor necrosis factor receptor 2 (TNFR2), P20333 23-461 (receptor)
chain: LPAQVAFTPYAPEPGSTCRLREYYDQTAQMCCSKCSPGQHAKVFCTKTSDTVCDSCEDSTYTQLWNWVPECLSCGSRCSSDQVETQACTREQNRICTCRPGWYCALSKQEGCRLCAPLRKCRPGFGVARPGTETSDVVCKPCAPGTFSNTTSSTDICRPHQICNVVAIPGNASMDAVCTSTSPTRSMAPGAVHLPQPVSTRSQHTQPTPEPSTAPSTSFLLPMGPSPPAEGSTGDFALPVGLIVGVTALGLLIIGVVNCVIMTQVKKKPLCLQREAKVPHLPADKARGTQGPEQQHLLITAPSSSSSSLESSASALDRRAPTRNQPQAPGVEASGAGEARASTGSSDSSPGGHGTQVNVTCIVNVCSSSDHSSQCSSQASSTMGDTDSSPSESPKDEQVPFSKEECAFRSQLETPETLLGSTEEKPLPLGVPDAGMKPS
